The supplement of paper PMC10849652
The other results are listed elsewhere or left out.

The chains behind the UniProt entries cited, without tags or fusion partners. Where a name states a change or a piece, a line headed by the entry shows the natural chain unless it says otherwise.
UniProt P02100: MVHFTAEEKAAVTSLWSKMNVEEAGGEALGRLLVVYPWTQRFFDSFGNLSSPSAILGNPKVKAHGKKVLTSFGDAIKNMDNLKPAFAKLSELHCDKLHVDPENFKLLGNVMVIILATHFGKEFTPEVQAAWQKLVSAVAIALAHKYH
UniProt Q7Z4H7: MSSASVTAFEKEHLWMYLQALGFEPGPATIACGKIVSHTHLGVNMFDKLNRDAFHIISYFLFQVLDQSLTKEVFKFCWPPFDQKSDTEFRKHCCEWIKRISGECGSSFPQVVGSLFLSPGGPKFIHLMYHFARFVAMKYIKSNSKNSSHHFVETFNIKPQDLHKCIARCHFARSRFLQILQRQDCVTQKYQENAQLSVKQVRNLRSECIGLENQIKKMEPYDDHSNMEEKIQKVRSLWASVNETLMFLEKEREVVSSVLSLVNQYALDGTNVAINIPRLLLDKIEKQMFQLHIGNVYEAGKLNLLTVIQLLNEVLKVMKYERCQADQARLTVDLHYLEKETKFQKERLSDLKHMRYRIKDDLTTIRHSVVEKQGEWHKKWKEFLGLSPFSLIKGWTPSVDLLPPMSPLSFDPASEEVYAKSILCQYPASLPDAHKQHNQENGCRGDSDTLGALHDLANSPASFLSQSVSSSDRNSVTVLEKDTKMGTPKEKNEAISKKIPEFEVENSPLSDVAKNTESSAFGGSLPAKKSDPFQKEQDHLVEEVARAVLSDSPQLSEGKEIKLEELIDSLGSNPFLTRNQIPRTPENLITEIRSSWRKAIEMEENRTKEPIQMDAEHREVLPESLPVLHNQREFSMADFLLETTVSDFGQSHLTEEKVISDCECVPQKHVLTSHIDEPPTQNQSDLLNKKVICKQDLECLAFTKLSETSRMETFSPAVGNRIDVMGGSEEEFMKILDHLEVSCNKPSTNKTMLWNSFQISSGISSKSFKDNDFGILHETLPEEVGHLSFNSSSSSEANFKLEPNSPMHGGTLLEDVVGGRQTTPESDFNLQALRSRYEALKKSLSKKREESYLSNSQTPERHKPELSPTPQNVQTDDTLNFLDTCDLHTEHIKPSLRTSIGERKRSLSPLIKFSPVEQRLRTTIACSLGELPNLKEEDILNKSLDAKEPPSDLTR
UniProt Q8WUA4: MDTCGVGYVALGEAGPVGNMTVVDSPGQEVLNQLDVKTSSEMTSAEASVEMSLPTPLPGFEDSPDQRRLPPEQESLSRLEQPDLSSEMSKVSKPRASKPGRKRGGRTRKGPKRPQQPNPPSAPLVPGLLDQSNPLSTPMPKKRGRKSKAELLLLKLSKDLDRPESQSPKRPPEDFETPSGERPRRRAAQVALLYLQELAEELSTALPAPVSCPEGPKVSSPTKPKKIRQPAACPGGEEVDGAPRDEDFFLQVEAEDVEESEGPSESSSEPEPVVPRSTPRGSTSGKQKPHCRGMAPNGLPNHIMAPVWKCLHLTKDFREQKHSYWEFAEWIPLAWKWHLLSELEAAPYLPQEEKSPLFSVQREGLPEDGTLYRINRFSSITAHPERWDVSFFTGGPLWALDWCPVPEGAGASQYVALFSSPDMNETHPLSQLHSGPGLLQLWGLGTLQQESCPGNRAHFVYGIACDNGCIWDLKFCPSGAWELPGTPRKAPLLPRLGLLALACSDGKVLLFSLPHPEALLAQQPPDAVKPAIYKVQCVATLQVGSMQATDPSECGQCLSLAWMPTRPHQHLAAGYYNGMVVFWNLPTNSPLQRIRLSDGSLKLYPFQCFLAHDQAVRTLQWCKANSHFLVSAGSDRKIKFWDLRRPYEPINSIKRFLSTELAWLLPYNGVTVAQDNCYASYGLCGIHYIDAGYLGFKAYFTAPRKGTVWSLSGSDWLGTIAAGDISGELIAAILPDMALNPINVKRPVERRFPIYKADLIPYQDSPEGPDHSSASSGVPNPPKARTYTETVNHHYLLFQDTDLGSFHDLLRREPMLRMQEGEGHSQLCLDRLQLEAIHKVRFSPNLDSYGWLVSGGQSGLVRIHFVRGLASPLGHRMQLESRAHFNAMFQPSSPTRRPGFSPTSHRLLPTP
UniProt Q9Y2Q3: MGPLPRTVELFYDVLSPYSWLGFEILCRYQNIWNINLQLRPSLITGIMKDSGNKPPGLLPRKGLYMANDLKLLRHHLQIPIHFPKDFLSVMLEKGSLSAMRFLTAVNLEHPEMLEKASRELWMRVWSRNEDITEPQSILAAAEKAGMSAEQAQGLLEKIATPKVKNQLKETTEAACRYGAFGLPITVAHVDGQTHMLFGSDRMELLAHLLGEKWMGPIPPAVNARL
UniProt A4D1E9: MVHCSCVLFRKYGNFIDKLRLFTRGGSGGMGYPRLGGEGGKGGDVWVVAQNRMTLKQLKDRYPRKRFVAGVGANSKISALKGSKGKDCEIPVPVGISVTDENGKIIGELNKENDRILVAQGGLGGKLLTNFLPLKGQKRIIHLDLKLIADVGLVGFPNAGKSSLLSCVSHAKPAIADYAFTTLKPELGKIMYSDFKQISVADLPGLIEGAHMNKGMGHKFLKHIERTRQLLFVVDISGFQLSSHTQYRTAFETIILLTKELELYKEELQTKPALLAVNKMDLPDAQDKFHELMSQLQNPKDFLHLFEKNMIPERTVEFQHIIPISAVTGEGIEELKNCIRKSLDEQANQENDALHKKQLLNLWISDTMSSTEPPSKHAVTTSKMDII
UniProt Q13322: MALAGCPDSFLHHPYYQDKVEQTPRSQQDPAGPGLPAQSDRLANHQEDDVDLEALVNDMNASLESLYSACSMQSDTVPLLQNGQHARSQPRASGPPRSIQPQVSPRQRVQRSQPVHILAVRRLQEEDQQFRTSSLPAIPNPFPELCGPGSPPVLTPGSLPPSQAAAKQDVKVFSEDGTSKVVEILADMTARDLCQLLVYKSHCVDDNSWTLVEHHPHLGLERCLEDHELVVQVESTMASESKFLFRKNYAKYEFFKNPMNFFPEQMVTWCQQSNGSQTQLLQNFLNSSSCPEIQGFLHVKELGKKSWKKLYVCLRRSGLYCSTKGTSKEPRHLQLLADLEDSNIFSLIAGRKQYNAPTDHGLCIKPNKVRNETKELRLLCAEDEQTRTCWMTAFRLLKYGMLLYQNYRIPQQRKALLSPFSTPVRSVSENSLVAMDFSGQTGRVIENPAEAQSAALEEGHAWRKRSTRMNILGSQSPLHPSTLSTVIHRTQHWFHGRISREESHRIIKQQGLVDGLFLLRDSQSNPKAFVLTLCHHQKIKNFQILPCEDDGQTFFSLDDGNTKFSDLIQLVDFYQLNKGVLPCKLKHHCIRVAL
UniProt Q92759: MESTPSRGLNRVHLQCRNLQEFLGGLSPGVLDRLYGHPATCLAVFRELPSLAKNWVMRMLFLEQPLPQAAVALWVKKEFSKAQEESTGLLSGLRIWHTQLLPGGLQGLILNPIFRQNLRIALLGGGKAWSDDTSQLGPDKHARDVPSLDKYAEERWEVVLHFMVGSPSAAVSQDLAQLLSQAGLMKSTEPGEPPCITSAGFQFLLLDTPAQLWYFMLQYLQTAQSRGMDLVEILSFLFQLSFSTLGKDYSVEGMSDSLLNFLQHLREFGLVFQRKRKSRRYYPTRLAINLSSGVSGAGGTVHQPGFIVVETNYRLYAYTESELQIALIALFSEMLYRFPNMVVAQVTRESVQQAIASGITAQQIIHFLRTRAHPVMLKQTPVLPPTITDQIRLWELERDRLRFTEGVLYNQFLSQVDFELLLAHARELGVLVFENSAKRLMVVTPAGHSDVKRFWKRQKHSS
UniProt Q4V328: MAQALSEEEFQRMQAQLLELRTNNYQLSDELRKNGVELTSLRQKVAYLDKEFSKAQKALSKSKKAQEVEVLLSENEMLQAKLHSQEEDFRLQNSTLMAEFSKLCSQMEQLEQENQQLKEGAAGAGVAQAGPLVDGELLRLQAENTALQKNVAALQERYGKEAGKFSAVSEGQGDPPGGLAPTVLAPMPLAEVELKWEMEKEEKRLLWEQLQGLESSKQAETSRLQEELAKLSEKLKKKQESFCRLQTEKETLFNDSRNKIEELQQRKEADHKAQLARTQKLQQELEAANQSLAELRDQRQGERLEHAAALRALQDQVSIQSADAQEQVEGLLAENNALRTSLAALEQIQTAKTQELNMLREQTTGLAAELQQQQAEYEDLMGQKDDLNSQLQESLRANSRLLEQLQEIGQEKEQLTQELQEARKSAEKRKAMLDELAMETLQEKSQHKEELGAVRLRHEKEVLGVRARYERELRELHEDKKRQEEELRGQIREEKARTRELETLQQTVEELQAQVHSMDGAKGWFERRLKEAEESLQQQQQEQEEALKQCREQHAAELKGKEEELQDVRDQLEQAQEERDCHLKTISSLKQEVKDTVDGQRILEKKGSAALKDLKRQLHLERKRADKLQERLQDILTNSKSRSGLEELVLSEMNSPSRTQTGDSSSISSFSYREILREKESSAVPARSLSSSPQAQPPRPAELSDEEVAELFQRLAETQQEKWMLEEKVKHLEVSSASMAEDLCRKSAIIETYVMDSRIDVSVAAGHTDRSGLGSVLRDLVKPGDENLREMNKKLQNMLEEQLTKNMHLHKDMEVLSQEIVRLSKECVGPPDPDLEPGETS
UniProt P09211: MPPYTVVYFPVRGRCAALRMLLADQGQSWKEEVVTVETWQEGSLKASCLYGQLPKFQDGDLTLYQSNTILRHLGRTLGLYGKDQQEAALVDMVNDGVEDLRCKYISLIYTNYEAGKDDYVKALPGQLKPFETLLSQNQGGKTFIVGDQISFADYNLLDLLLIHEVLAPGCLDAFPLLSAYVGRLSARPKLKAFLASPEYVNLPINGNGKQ
UniProt P30711: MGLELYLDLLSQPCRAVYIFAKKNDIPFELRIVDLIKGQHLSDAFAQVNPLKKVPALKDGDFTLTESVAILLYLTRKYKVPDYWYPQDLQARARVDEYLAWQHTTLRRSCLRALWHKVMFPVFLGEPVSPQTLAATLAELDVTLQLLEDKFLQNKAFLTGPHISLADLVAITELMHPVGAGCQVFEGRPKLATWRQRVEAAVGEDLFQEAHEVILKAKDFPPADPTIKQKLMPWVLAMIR
UniProt Q8NEC7: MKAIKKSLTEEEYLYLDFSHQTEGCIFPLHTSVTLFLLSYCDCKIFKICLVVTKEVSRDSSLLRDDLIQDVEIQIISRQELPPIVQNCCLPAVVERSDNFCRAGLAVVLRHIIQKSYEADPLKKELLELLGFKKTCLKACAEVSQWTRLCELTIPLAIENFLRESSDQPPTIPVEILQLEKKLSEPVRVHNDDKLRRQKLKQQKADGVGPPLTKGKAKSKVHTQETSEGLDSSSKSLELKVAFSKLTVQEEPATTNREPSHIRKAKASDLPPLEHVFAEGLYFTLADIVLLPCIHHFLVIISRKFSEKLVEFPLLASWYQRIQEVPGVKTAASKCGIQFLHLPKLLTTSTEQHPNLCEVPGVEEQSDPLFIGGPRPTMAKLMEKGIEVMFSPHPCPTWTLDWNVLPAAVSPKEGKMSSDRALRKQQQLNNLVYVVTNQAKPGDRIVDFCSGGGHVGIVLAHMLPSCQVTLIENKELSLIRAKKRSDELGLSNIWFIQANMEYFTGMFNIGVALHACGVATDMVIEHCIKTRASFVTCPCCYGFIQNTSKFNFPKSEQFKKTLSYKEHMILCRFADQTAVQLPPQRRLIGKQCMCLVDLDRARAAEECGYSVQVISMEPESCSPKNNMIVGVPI
UniProt P32780: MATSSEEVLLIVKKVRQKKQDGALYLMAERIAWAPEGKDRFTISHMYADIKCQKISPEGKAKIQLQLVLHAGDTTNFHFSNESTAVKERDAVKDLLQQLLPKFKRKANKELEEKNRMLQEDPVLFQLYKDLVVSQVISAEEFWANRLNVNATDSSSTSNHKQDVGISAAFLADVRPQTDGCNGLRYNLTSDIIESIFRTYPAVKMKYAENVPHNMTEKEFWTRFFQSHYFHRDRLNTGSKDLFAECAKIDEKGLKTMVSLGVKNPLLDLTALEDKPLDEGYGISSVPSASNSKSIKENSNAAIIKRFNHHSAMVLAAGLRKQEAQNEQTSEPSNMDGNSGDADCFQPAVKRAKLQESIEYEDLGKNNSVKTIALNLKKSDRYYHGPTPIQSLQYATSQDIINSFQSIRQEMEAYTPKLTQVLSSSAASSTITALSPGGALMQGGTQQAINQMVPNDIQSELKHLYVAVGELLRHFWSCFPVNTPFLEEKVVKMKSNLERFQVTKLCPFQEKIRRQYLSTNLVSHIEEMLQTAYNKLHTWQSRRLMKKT

What was measured:
Assay in all cases: log2 fold change, soluble protein after heating vs DMSO (PISA); higher = thermal stabilisation; K562 lysate, 10 uM; active = over 0.2 and 3.5 SD of the protein, either way, in both replicates (recomputed)
nilotinib = compound: Cc1cn(-c2cc(NC(=O)c3ccc(C)c(Nc4nccc(-c5cccnc5)n4)c3)cc(C(F)(F)F)c2)cn1 [nilotinib]
Procedure, shortened: (§1)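 Dounce homogenisation of K562 pellets in PBS pH 7.4 with 1 mM MgCl2 produced a crude extract, used at 1 mg/mL protein. Exposure to 10 μM compound lasted 30 min, and aliquots were then heated for 3 min across 48°C-58°C, pooled and brought to 0.5% NP-40 at 4°C. The supernatant after 21,000xg for 90 min was quantified by TMTpro 16plex LC-MS/MS with channel sums equalised. Duplicate values are given as log-two fold change in thermal stability relative to solvent controls.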

[1] = compound: Cc1nc(Nc2n[nH]c3c2CN(C(=O)N[C@H](CN(C)C)c2ccccc2)C3(C)C)c2sccc2n1
Procedure, shortened: as §1

dasatinib = compound: Cc1nc(Nc2ncc(C(=O)Nc3c(C)cccc3Cl)s2)cc(N2CCN(CCO)CC2)n1 [dasatinib]
Procedure, shortened: as §1

[2] = compound: Cc1ncc(-c2ccnc(Nc3ccc(S(C)(=O)=O)cc3)n2)n1C(C)C
Procedure, shortened: as §1

[3] = compound: Cn1cc(-c2ccc3c(c2)CCN3C(=O)Cc2cccc(C(F)(F)F)c2)c2c(N)ncnc21
Procedure, shortened: as §1

quisinostat = compound: Cn1cc(CNCC2CCN(c3ncc(C(=O)NO)cn3)CC2)c2ccccc21 [quisinostat]
Procedure, shortened: as §1

tipifarnib = compound: Cn1cncc1[C@@](N)(c1ccc(Cl)cc1)c1ccc2c(c1)c(-c1cccc(Cl)c1)cc(=O)n2C [tipifarnib]
Procedure, shortened: as §1

[4] = compound: NC(=O)Nc1cc(-c2cccc(F)c2)sc1C(=O)N[C@H]1CCCNC1
Procedure, shortened: as §1

[5] = compound: NC(=O)c1cnc(N[C@@H]2CCCC[C@@H]2N)nc1Nc1cccc(-n2nccn2)c1
Procedure, shortened: as §1

[6] = compound: NC1(c2ccc(-c3nc4ccn5c(=O)[nH]nc5c4cc3-c3ccccc3)cc2)CCC1
Procedure, shortened: as §1

Measured: log2 fold change

HBE1 (UniProt P02100)
inactive: nilotinib 0.035 | [1] -0.015 | dasatinib 0.04 | [2] 0.012 | [3] -0.038 | quisinostat 0.061 | tipifarnib 0.023 | [4] -0.041 | [5] -0.029 | [6] 0.002

HARS2 (UniProt P49590)
inactive: nilotinib 0.015 | [1] -0.02 | dasatinib -0.027 | [2] -0.023 | [3] 0.06 | quisinostat 0.005 | tipifarnib 0.012 | [4] 0.027 | [5] 0.036 | [6] -0.014

HAUS6 (UniProt Q7Z4H7)
inactive: nilotinib -0.022 | [1] -0.008 | dasatinib -0.057 | [2] 0.022 | [3] 0.038 | quisinostat -0.066 | tipifarnib 0.053 | [4] 0.035 | [5] -0.055 | [6] -0.004

GTF3C4 (UniProt Q9UKN8)
inactive: nilotinib 0.014 | [1] -0.019 | dasatinib -0.042 | [2] -0.015 | [3] 0.008 | quisinostat 0.003 | tipifarnib -0.005 | [4] 0.01 | [5] 0.006 | [6] -0.012

GTF3C2 (UniProt Q8WUA4)
inactive: nilotinib -0.034 | [1] -0.031 | dasatinib -0.029 | [2] -0.047 | [3] 0.001 | quisinostat -0.064 | tipifarnib 0.006 | [4] 0.009 | [5] 0.037 | [6] 0.005

GSTK1 (UniProt Q9Y2Q3)
inactive: nilotinib -0.018 | [1] 0.03 | dasatinib 0.001 | [2] 0.027 | [3] -0.013 | quisinostat 0.02 | tipifarnib 0.022 | [4] -0.004 | [5] 0.02 | [6] -0.03

GTPBP10 (UniProt A4D1E9)
inactive: nilotinib -0.011 | [1] -0.031 | dasatinib -0.059 | [2] -0.032 | [3] 0.003 | quisinostat -0.041 | tipifarnib 0.153 | [4] -0.041 | [5] -0.034 | [6] -0.023

GRB10 (UniProt Q13322)
inactive: nilotinib 0.053 | [1] -0.028 | dasatinib -0.003 | [2] 0.026 | [3] 0.04 | quisinostat -0.065 | tipifarnib -0.058 | [4] 0.008 | [5] -0.056 | [6] 0.008

GTF2H4 (UniProt Q92759)
inactive: nilotinib 0.006 | [1] 0.021 | dasatinib 0.003 | [2] 0.019 | [3] -0.011 | quisinostat -0.029 | tipifarnib -0.008 | [4] 0.07 | [5] 0.04 | [6] -0.08

Retrieved one by one from the list above (two):
GRB10 (UniProt Q13322)
inactive: nilotinib 0.053 | [1] -0.028 | dasatinib -0.003 | [2] 0.026 | [3] 0.04 | quisinostat -0.065 | tipifarnib -0.058 | [4] 0.008 | [5] -0.056 | [6] 0.008

GTF2H4 (UniProt Q92759)
inactive: nilotinib 0.006 | [1] 0.021 | dasatinib 0.003 | [2] 0.019 | [3] -0.011 | quisinostat -0.029 | tipifarnib -0.008 | [4] 0.07 | [5] 0.04 | [6] -0.08

Going on with the list:

GRIPAP1 (UniProt Q4V328)
inactive: nilotinib -0.025 | [1] -0.001 | dasatinib 0.016 | [2] 0.018 | [3] 0.001 | quisinostat -0.012 | tipifarnib -0.011 | [4] -0.011 | [5] -0.022 | [6] 0.005

GSTP1 (UniProt P09211)
inactive: nilotinib 0.006 | [1] -0.001 | dasatinib -0.035 | [2] -0.003 | [3] -0.01 | quisinostat -0.016 | tipifarnib 0.029 | [4] -0.029 | [5] -0.004 | [6] 0.01

GSTT1 (UniProt P30711)
inactive: nilotinib -0.022 | [1] 0.023 | dasatinib -0.031 | [2] 0.086 | [3] -0.036 | quisinostat -0.025 | tipifarnib 0.01 | [4] -0.019 | [5] -0.015 | [6] -0.011

GSTCD (UniProt Q8NEC7)
inactive: nilotinib 0.039 | [1] -0.04 | dasatinib -0.003 | [2] -0.005 | [3] -0.098 | quisinostat -0.053 | tipifarnib 0.01 | [4] 0.08 | [5] -0.014 | [6] -0.008

H6PD (UniProt O95479)
inactive: nilotinib 0.246 | [1] 0.188 | dasatinib -0.087 | [2] 0.031 | [3] 0.03 | quisinostat 0.011 | tipifarnib 0.089 | [4] 0.08 | [5] 0.014 | [6] -0.045

GTF2H1 (UniProt P32780)
inactive: nilotinib 0.009 | [1] 0.013 | dasatinib -0.012 | [2] -0.04 | [3] 0.043 | quisinostat -0.064 | tipifarnib 0.084 | [4] 0.06 | [5] 0.037 | [6] -0.036
